No constants are given. Whether binding was seen depends on the method and setting. In cells and extracts the contact can be indirect. Some entries that bind do so weakly or less than the wild type. For part of these data: Tags and fused reporters may be left off the sequences shown.
T1: GADD45α (endogenously expressed) (mouse (endogenous in brown adipocytes)) (UniProt P48316)
T1 sequence: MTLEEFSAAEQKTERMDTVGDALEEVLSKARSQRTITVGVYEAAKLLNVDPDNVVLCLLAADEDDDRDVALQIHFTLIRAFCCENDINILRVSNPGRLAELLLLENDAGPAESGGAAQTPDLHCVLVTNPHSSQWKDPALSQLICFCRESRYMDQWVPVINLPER

Amino acid sequences for entries named in this document (tags omitted).
UniProt P37238: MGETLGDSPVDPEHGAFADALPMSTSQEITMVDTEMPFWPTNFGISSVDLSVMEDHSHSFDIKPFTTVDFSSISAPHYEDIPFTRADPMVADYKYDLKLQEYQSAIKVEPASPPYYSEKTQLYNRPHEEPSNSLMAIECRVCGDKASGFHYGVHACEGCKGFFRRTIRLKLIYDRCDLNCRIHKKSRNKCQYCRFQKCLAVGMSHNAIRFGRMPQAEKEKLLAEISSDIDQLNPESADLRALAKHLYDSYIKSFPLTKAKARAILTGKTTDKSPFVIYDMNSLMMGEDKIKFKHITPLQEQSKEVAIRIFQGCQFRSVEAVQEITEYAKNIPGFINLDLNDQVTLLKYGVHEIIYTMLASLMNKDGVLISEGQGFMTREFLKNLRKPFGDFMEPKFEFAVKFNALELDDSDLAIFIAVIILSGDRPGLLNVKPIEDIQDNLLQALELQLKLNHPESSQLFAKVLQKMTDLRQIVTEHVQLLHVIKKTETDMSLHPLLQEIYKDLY

T2: FLAG-GADD45α (UniProt P48316)
T2 sequence: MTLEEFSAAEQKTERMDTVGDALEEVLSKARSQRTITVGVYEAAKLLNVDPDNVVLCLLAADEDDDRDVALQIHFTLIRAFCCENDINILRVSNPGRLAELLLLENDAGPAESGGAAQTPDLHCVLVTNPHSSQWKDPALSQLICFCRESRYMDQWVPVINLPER


Columns and labels:
[1] = biological target: T1, GADD45α (endogenously expressed) (mouse (endogenous in brown adipocytes)); assay: co-IP; endogenous proteins; lysates of differentiated brown adipocytes immunoprecipitated with GADD45α or PPARγ antibodies, protein A/G agarose, 4 °C overnight, washed with cold PBS; blotted with these antibodies
FLAG-GADD45α = biological target: T2, FLAG-GADD45α; assay: co-IP; lysates of brown adipocytes transfected with pCDNA-FLAG-GADD45α; immunoprecipitated with FLAG and PPARγ antibodies, protein A/G agarose, 4 °C overnight, washed with cold PBS; blotted with FLAG and PPARγ antibodies
[2] = biological target: PPARγ (mouse (endogenous in brown adipocytes)) (UniProt P37238); assay: as above

| binding [1] | binding (FLAG-GADD45α) | binding [2] | Molecule |
| --- | --- | --- | --- |
| binds | binds |  | PPARγ (from UniProt P37238 1-505) |
|  |  | binds | FLAG-GADD45α (protein, UniProt P48316 1-165) MTLEEFSAAEQKTERMDTVGDALEEVLSKARSQRTITVGVYEAAKLLNVDPDNVVLCLLAADEDDDRDVALQIHFTLIRAFCCENDINILRVSNPGRLAELLLLENDAGPAESGGAAQTPDLHCVLVTNPHSSQWKDPALSQLICFCRESRYMDQWVPVINLPER |

From paper PMC7385159
